# Results published in the supplement of paper PMC8728848.
# This is one part of the list.
# B1: Erv41-EDTA (Saccharomyces cerevisiae), Q04651 (protein)
# chain: MKFLVNVALVFMVVYISYIYAAAPEHHHHHHDYDIPTTENLYFQGAMGYIDQQYVVDSQVRDTVQINMDIYVNTKCDWLQINVRDQTMDRKLVLEELQLEEMPFFIPYDTKVNDINEIITPELDEILGEAIPAEFREKLDTRSFFDESDPNKAHLPEFNGCHVFGSIPVNRVSGELQITAKSLGYVASRKAPLEELKFNHVINEFSFGDFYPYIDNPLDNTAQFNQDEPLTTYVYYTSVVPTLFKKLGAEVDTNQYSVNDYRYLYKDVAAKGDKMPGIFFKYNFEPLSIVVSDVRL
# Experiments:
# Assay in all cases: glycan array binding signal (z-score within array); higher = stronger binding
# Conditions in all cases: glycan notation: IUPAC condensed, linker removed
# [1] = molecular target: Gal(b1-3)[Fuc(a1-4)]GlcNAc(b1-3)Gal(b1-4)[Fuc(a1-3)]GlcNAc
# Outline: (§1)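 The Consortium for Functional Glycomics database supplied 3228 glycan arrays, of which those lacking an available protein sequence were dropped. The binding signal, a within-array Z-score, was averaged across arrays of the same protein sequence and across linkers. Negative scores can be read as non-binding.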
# [2] = molecular target: Gal(b1-3)[Fuc(a1-4)]GlcNAc(b1-6)GalNAc
# Outline: as §1
# [3] = molecular target: Gal(b1-3)[GlcNAc(b1-6)]GalNAc
# Outline: as §1
# [4] = molecular target: Gal(b1-3)[Neu5Ac(a2-6)]GalNAc
# Outline: as §1
# [5] = molecular target: Gal(b1-3)[Neu5Ac(a2-6)]GlcNAc(b1-4)Gal(b1-4)Glc
# Outline: as §1
# [6] = molecular target: Gal(b1-3)[Neu5Ac(b2-6)]GalNAc
# Outline: as §1
# Gal(b1-4)Gal = molecular target: Gal(b1-4)Gal
# Outline: as §1
# [7] = molecular target: Gal(b1-4)GalNAc(a1-3)[Fuc(a1-2)]Gal(b1-4)GlcNAc
# Outline: as §1
# [8] = molecular target: Gal(b1-4)GalNAc(b1-3)[Fuc(a1-2)]Gal(b1-4)GlcNAc
# Outline: as §1
# Gal(b1-4)Glc = molecular target: Gal(b1-4)Glc
# Outline: as §1
# Gal(b1-4)Glc6S = molecular target: Gal(b1-4)Glc6S
# Outline: as §1
# Gal(b1-4)GlcNAc = molecular target: Gal(b1-4)GlcNAc
# Outline: as §1
# [9] = molecular target: Gal(b1-4)GlcNAc(a1-6)Gal(b1-4)GlcNAc
# Outline: as §1
# Gal(b1-4)GlcNAc(b1-2)Man = molecular target: Gal(b1-4)GlcNAc(b1-2)Man
# Outline: as §1
# [10] = molecular target: Gal(b1-4)GlcNAc(b1-2)Man(a1-3)Man(b1-4)GlcNAc(b1-4)GlcNAc
# Outline: as §1
# [11] = molecular target: Gal(b1-4)GlcNAc(b1-2)Man(a1-3)[Gal(b1-4)GlcNAc(b1-2)Man(a1-6)]Man(b1-4)GlcNAc(b1-4)GlcNAc
# Outline: as §1
# [12] = molecular target: Gal(b1-4)GlcNAc(b1-2)Man(a1-3)[Gal(b1-4)GlcNAc(b1-2)Man(a1-6)]Man(b1-4)GlcNAc(b1-4)[Fuc(a1-6)]GlcNAc
# Outline: as §1
# [13] = molecular target: Gal(b1-4)GlcNAc(b1-2)Man(a1-3)[Gal(b1-4)GlcNAc(b1-2)Man(a1-6)][Gal(b1-4)GlcNAc(b1-4)]Man(b1-4)GlcNAc(b1-4)[Fuc(a1-6)]GlcNAc
# Outline: as §1
# [14] = molecular target: Gal(b1-4)GlcNAc(b1-2)Man(a1-3)[Gal(b1-4)GlcNAc(b1-2)Man(a1-6)][GlcNAc(b1-4)]Man(b1-4)GlcNAc(b1-4)[Fuc(a1-6)]GlcNAc
# Outline: as §1
# [15] = molecular target: Gal(b1-4)GlcNAc(b1-2)Man(a1-3)[GlcNAc(b1-2)Man(a1-6)]Man(b1-4)GlcNAc(b1-4)GlcNAc
# Outline: as §1
# [16] = molecular target: Gal(b1-4)GlcNAc(b1-2)Man(a1-3)[GlcNAc(b1-4)][Gal(b1-4)GlcNAc(b1-2)Man(a1-6)]Man(b1-4)GlcNAc(b1-4)GlcNAc
# Outline: as §1
# [17] = molecular target: Gal(b1-4)GlcNAc(b1-2)Man(a1-3)[Man(a1-6)]Man(b1-4)GlcNAc(b1-4)GlcNAc
# Outline: as §1
# [18] = molecular target: Gal(b1-4)GlcNAc(b1-2)Man(a1-6)Man(b1-4)GlcNAc(b1-4)GlcNAc
# Outline: as §1
# [19] = molecular target: Gal(b1-4)GlcNAc(b1-2)Man(a1-6)[GlcNAc(b1-2)Man(a1-3)]Man(b1-4)GlcNAc(b1-4)GlcNAc
# Outline: as §1
# [20] = molecular target: Gal(b1-4)GlcNAc(b1-2)Man(a1-6)[Man(a1-3)]Man(b1-4)GlcNAc(b1-4)GlcNAc
# Outline: as §1
# [21] = molecular target: Gal(b1-4)GlcNAc(b1-2)[Gal(b1-4)GlcNAc(b1-4)]Man(a1-3)[Gal(b1-4)GlcNAc(b1-2)Man(a1-6)]Man(b1-4)GlcNAc(b1-4)GlcNAc
# Outline: as §1
# [22] = molecular target: Gal(b1-4)GlcNAc(b1-2)[Gal(b1-4)GlcNAc(b1-4)]Man(a1-3)[Gal(b1-4)GlcNAc(b1-2)[Gal(b1-4)GlcNAc(b1-6)]Man(a1-6)]Man(b1-4)GlcNAc(b1-4)GlcNAc
# Outline: as §1
# [23] = molecular target: Gal(b1-4)GlcNAc(b1-2)[Gal(b1-4)GlcNAc(b1-4)]Man(a1-3)[GlcNAc(b1-4)][Gal(b1-4)GlcNAc(b1-2)Man(a1-6)]Man(b1-4)GlcNAc(b1-4)GlcNAc
# Outline: as §1
# [24] = molecular target: Gal(b1-4)GlcNAc(b1-2)[Gal(b1-4)GlcNAc(b1-4)]Man(a1-3)[GlcNAc(b1-4)][Gal(b1-4)GlcNAc(b1-2)[Gal(b1-4)GlcNAc(b1-6)]Man(a1-6)]Man(b1-4)GlcNAc(b1-4)GlcNAc
# Outline: as §1
# [25] = molecular target: Gal(b1-4)GlcNAc(b1-2)[Gal(b1-4)GlcNAc(b1-6)]Man(a1-6)[Gal(b1-4)GlcNAc(b1-2)Man(a1-3)]Man(b1-4)GlcNAc(b1-4)GlcNAc
# Outline: as §1
# [26] = molecular target: Gal(b1-4)GlcNAc(b1-2)[Gal(b1-4)GlcNAc(b1-6)]Man(a1-6)[Gal(b1-4)GlcNAc(b1-2)Man(a1-3)]Man(b1-4)GlcNAc(b1-4)[Fuc(a1-6)]GlcNAc
# Outline: as §1
# [27] = molecular target: Gal(b1-4)GlcNAc(b1-2)[Gal(b1-4)GlcNAc(b1-6)]Man(a1-6)[GlcNAc(b1-4)][Gal(b1-4)GlcNAc(b1-2)Man(a1-3)]Man(b1-4)GlcNAc(b1-4)GlcNAc
# Outline: as §1
# [28] = molecular target: Gal(b1-4)GlcNAc(b1-2)[Gal(b1-4)GlcNAc(b1-6)]Man(a1-6)[GlcNAc(b1-4)][Gal(b1-4)GlcNAc(b1-2)[Gal(b1-4)GlcNAc(b1-4)]Man(a1-3)]Man(b1-4)GlcNAc(b1-4)[Fuc(a1-6)]GlcNAc
# Outline: as §1
# [29] = molecular target: Gal(b1-4)GlcNAc(b1-3)Gal(b1-3)GalNAc
# Outline: as §1
# [30] = molecular target: Gal(b1-4)GlcNAc(b1-3)Gal(b1-3)GlcNAc
# Outline: as §1
# [31] = molecular target: Gal(b1-4)GlcNAc(b1-3)Gal(b1-4)Glc
# Outline: as §1
# [32] = molecular target: Gal(b1-4)GlcNAc(b1-3)Gal(b1-4)GlcNAc
# Outline: as §1
# [33] = molecular target: Gal(b1-4)GlcNAc(b1-3)Gal(b1-4)GlcNAc(b1-2)Man(a1-3)[Gal(b1-4)GlcNAc(b1-3)Gal(b1-4)GlcNAc(b1-2)Man(a1-6)]Man(b1-4)GlcNAc(b1-4)GlcNAc
# Outline: as §1
binder,measurement,setting,value
B1,glycan array binding signal (z-score),[1],-0.459
same,glycan array binding signal (z-score),[2],0.129
same,glycan array binding signal (z-score),[3],-0.284
same,glycan array binding signal (z-score),[4],-0.34
same,glycan array binding signal (z-score),[5],-0.127
same,glycan array binding signal (z-score),[6],-1.1
same,glycan array binding signal (z-score),Gal(b1-4)Gal,0.294
same,glycan array binding signal (z-score),[7],-0.701
same,glycan array binding signal (z-score),[8],-0.454
same,glycan array binding signal (z-score),Gal(b1-4)Glc,-0.527
same,glycan array binding signal (z-score),Gal(b1-4)Glc6S,0.156
same,glycan array binding signal (z-score),Gal(b1-4)GlcNAc,-0.475
same,glycan array binding signal (z-score),[9],-1.28
same,glycan array binding signal (z-score),Gal(b1-4)GlcNAc(b1-2)Man,-0.249
same,glycan array binding signal (z-score),[10],0.159
same,glycan array binding signal (z-score),[11],-0.382
same,glycan array binding signal (z-score),[12],1.05
same,glycan array binding signal (z-score),[13],-0.982
same,glycan array binding signal (z-score),[14],0.507
same,glycan array binding signal (z-score),[15],-1.18
same,glycan array binding signal (z-score),[16],0.638
same,glycan array binding signal (z-score),[17],-0.987
same,glycan array binding signal (z-score),[18],-0.604
same,glycan array binding signal (z-score),[19],-0.581
same,glycan array binding signal (z-score),[20],-0.568
same,glycan array binding signal (z-score),[21],-0.294
same,glycan array binding signal (z-score),[22],-1.49
same,glycan array binding signal (z-score),[23],-0.565
same,glycan array binding signal (z-score),[24],-1.56
same,glycan array binding signal (z-score),[25],0.313
same,glycan array binding signal (z-score),[26],1.8
same,glycan array binding signal (z-score),[27],0.543
same,glycan array binding signal (z-score),[28],0.231
same,glycan array binding signal (z-score),[29],-0.758
same,glycan array binding signal (z-score),[30],-0.245
same,glycan array binding signal (z-score),[31],-0.262
same,glycan array binding signal (z-score),[32],-0.833
same,glycan array binding signal (z-score),[33],1.39

# Part of the list above, with tabs.
binder	measurement	setting	value
B1	glycan array binding signal (z-score)	[1]	-0.459
same	glycan array binding signal (z-score)	Gal(b1-4)Glc6S	0.156
